Results taken from paper PMC5624629.
No constants are given. Whether binding was seen depends on the method and setting. Binding calls can cover weak binding; strength is not graded here.

By UniProt entry, the sequences of proteins in these tests, tags left out. Where a name states a change or a piece, a line headed by the entry shows the natural chain unless it says otherwise.
UniProt P08253: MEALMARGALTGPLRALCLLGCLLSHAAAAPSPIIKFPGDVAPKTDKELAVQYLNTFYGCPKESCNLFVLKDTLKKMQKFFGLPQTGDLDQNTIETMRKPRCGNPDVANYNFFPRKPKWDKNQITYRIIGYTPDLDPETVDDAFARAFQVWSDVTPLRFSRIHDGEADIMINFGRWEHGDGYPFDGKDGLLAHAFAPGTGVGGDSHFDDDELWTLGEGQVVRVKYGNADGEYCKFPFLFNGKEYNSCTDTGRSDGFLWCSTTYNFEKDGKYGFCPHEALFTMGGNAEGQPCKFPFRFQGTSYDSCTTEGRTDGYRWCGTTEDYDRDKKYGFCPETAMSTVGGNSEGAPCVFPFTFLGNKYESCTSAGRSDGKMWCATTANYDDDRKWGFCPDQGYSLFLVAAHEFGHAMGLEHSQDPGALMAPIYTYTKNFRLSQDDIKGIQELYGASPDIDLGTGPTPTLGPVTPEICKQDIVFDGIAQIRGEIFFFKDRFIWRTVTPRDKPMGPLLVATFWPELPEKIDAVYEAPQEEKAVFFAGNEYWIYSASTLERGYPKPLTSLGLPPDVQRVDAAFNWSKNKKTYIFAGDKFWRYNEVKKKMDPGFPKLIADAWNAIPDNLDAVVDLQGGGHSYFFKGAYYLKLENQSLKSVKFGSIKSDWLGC

Assays:
Test in all cases: ELISA; solid-phase binding assay: catalytic domain or full-length proteins of MMP-9/MMP-2 coated at 8 ug/mL on 96-well plates; biotinylated R1R2 (20 ug/mL) added; bound peptide detected with anti-biotin antibodies, absorbance at 405 nm; both purified
[1] = target: catalytic domain of MMP-9 (not stated (human and mouse proteins bought))
[2] = target: full-length protein of MMP-2 (not stated (human and mouse proteins bought)) (UniProt P08253)
[3] = target: catalytic domain of MMP-2 (not stated (human and mouse proteins bought))

Measured: binding

B1: biotinylated R1R2 (peptide)
peptide: GLNGENQKEPEQGERGEAGPPLSGLSGNNQGRPSLPGLNGENQKEPEQGERGEAGPP
modifications: biotin (position not given)
binds: all assays above
